PubChem BioAssay AID504784, Drosophila RNAi Screening Center | 2011

- Purpose: 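Search for regulators of lipid droplet storage in oleate-fed fly cells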 (primary screen)
- Cell system: Drosophila Kc167 embryonic cells
- Reagent: long dsRNA against Drosophila genes, about 250 ng dsRNA per well
- Time to read-out: 4 days
- Treatment: cells fed 400 µM oleic acid bound to BSA
- Detection: 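Cells imaged and segmented; ratio of lipid droplet area to nuclear area, log-transformed, then normalised as a B-score over the screen; higher means more stored lipid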
- Scale: droplet/nuclear area B-score: higher = more stored lipid (overstorage)
The deposit covers about 17,000 reagents; this is an unselected part of those that have a named target and a result. 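Each column is one replicate's B-score; the combined score over replicates was not deposited, so single values may mislead.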 The numbers tell different reagents against one gene apart. Names joined by + are all predicted targets of the reagent.

no.	Gene	reagent	droplet/nuclear area B-score, replicate 1	droplet/nuclear area B-score, replicate 2	droplet/nuclear area B-score, replicate 3
1	Cf2 (Chorion factor 2)	1	-1.38	-0.00446	
2	Cf2 (Chorion factor 2)	2	-0.185	1.11	
3	CG34445	1	-0.675	0.121	
4	CG12576	1	-0.661	-1.39	
5	CG31278	1	0.687	-0.321	
6	Sox100B	1	-1.72	0.858	
7	Sox100B	2	1.14	-1.72	
8	CG9733	1	1.83	0.544	
9	Ptpa (Phosphotyrosyl phosphatase activator)	1	-0.422	0.909	
10	Tim13	1	0.912	0.705	
11	pAbp (poly(A) binding protein)	1	2.3	6.61	
12	CG8677 + CG31626	1	1.52	0.723	
13	GatB (Glutamyl-tRNA amidotransferase, subunit B)	1	1.68	-0.0149	
14	CG13544	1	-0.00988	0.633	
15	mfrn (mitoferrin)	1	2.65	0.673	

Entries listed so far whose gene name begins with S or s:
Gene	reagent	droplet/nuclear area B-score, replicate 1	droplet/nuclear area B-score, replicate 2	droplet/nuclear area B-score, replicate 3
Sox100B	1	-1.72	0.858	
Sox100B	2	1.14	-1.72	

Further records follow:
no.	Gene	reagent	droplet/nuclear area B-score, replicate 1	droplet/nuclear area B-score, replicate 2	droplet/nuclear area B-score, replicate 3
16	Herc4 (HECT and RLD domain containing E3 ubiquitin ligase 4)	1	-0.502	-0.202	
17	Glo1 (Glyoxalase 1)	1	0.147	0.448	
18	CG10561	1	-2.29	-0.379	
19	SelG (Selenoprotein G)	1	-0.507	0.0334	-1.71
20	shd (shade)	1	-1.24	-0.0554	
21	CG10183	1	-0.331	-2.56	
22	CG14650	1	0.635	-0.147	2
23	Blos3	1	0.0172	-1.3	
24	CG8243	1	0.724	-1.26	
25	CG8243	2	-1.46	-4.23	
26	CngA (Cyclic nucleotide-gated ion channel subunit A)	1	0.0625	-1.55	
27	CngA (Cyclic nucleotide-gated ion channel subunit A)	2	0.329	1.36	
28	CR33283 (pseudo)	1	0.578	0.551	
29	PolD1 (DNA polymerase delta subunit 1)	1	1.52	1.73	
30	CG14247	1	-0.846	0.763	
31	CG42784	1	-0.105	-0.0319	
32	CG42784	2	3.56	2.47	
33	CG42784	3	-0.0914	-1.94	
34	CG42784	4	-0.708	-1.73	
